# From PubChem BioAssay AID1671190 (National Center for Advancing Translational Sciences (NCATS), 2021)
# By UniProt entry, the sequences of proteins in these tests, tags left out.
# UniProt P18054, whole entry, looked up: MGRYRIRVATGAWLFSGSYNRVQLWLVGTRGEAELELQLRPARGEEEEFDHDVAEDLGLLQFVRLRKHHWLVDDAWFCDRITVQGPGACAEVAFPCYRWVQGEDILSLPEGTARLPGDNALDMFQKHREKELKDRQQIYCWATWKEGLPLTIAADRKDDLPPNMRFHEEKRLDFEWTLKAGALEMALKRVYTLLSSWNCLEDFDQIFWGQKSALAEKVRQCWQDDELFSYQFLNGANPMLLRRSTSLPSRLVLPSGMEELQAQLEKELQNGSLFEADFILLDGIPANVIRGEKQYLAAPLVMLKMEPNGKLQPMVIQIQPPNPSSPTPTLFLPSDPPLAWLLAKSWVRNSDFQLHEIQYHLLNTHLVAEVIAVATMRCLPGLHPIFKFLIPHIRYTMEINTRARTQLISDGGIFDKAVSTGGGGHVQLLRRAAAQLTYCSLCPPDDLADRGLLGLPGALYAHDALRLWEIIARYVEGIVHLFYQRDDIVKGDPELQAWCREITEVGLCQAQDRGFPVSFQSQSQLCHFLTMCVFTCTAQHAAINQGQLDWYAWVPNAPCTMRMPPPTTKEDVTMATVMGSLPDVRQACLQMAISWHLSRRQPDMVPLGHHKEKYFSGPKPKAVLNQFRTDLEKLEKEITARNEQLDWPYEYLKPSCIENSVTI
# In all, about 580,000 compounds went through this assay and about 6,100 (1.1%) were called active. Inconclusive results, whose numbers are uncertain, are shown with a selection of clear calls. The call rests on the fitted dose curve; in most records, active means well fitted inhibition curve with a large enough effect; inconclusive means small, poorly fitted or top-dose-only effect, or another doubt; inactive means no such curve, though single readings can be large or run the other way. Potencies beside an inconclusive call are fits to weak or partial responses and may not hold up.
# Molecular target: Polyunsaturated fatty acid lipoxygenase ALOX12 (Homo sapiens) (UniProt P18054)
# Test: Primary qHTS assay for inhibitors of human arachidonate 12S-lipoxygenase (ALOX12): Round 2
# Settings: purified 12hLO, xylenol orange hydroperoxide absorbance; activity change, negative = inhibition: at 108 µM (top of the series) unless noted
# How it was run: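 Purified human 12hLO (150 nM final) in 25 mM Hepes, 0.01% Triton X-100, pH 7.0 was preincubated 15 min at room temperature with compound. Then 40 uM arachidonic acid was added, 30 min. Hydroperoxide was read by Fe-XO absorbance ratio 573/405 nm.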
# On the % scale 0 is the no-effect control and ±100 the full control effect; potency means the concentration at half of the fitted maximal effect.
SMILES,"activity change, negative = inhibition",Potency
O=[S+]1([O-])NCC2(CCCN(Cc3ccc(F)cc3)C2)Oc2ncccc21 (stereo not given),inactive: 2.67% [at 6.33 µM],–
N#CC(C(=O)NCc1ccco1)c1nc2ccccc2nc1N1CCOCC1 (stereo not given),–,"inconclusive: 56.2 µM [inhibitor, partial curve, poor fit]"
Cc1ccc(NC(=O)CN2CCCCCC2)cc1Br,–,"inconclusive: 6.31 µM [inhibitor, full curve]"
CC(C)(C)c1csc(NC(=O)c2ccc(Cl)s2)n1,–,"inconclusive: 50.1 µM [inhibitor, partial curve, poor fit]"
Cn1ccnc1-c1nc2cc(S(=O)(=O)N3CCCC3)ccc2n1C,inactive: -9.25%,–
Cc1ccc2c(c1)[C@H]1[C@H](CO2)[C@H](c2ccccc2)[C@]2(C)C(=O)NCC(=O)N12,–,"inconclusive: 0.282 µM [inhibitor, full curve, poor fit]"
Nc1nc2nc(-c3ccccc3)cc(=O)n2[nH]1,–,"inconclusive: 50.1 µM [inhibitor, partial curve, poor fit]"
Cc1cc(C(=O)CCC(=O)N2CCN(S(=O)(=O)c3cccs3)CC2)c(C)s1,–,"inconclusive: 3.98 µM [inhibitor, full curve, poor fit]"
Cn1nc(C(=O)Nc2ccccc2Oc2ccccc2)c2ccccc2c1=O,–,"inconclusive: 8.91 µM [inhibitor, full curve, poor fit]"
Cc1cc(/C=C(\C#N)c2cccc(C(F)(F)F)c2)c(C)n1C,–,active: 39.8 µM
COc1ccc(NC(=O)CN2CCCN(Cc3ccccc3)S2(=O)=O)cc1,–,"inconclusive: 89.1 µM [inhibitor, partial curve, poor fit]"
Fc1ccc(CNc2nc(-c3ccc(Cl)cc3)cc(C(F)(F)F)n2)cc1,inactive: -24.7%,–
O=C(CN(CCc1ccccc1)C(=O)Cn1nnc(-c2cccs2)n1)NCc1ccco1,–,"inconclusive: 39.8 µM [inhibitor, partial curve, poor fit]"
Cc1ccccc1N/N=C/c1ccc(C#N)cc1,–,"inconclusive: 39.8 µM [inhibitor, partial curve, poor fit]"
O=C(COC(=O)c1ccc(S(=O)(=O)N2CCCCCC2)cc1)NCc1ccc(F)cc1,–,"inconclusive: 39.8 µM [inhibitor, partial curve, poor fit]"
COc1ccc2c(c1)C1=NN(/C(C)=C/C(C)=O)C(c3ccc(F)cc3)C1CC2 (stereo not given),–,"inconclusive: 17.8 µM [inhibitor, partial curve, poor fit]"
COc1ccc(CNS(=O)(=O)c2ccc(-c3ccc(=O)[nH]n3)s2)cc1,–,"inconclusive: 112 µM [inhibitor, single point]"
O=C(CSc1nc2ccccc2nc1Cc1ccc(Cl)cc1)N1CCCCC1,–,"inconclusive: 112 µM [inhibitor, partial curve, poor fit]"
Cc1cc2c(s1)CCCCCCCCCC/C2=N\Nc1ccc([N+](=O)[O-])cc1,–,"inconclusive: 44.7 µM [inhibitor, partial curve, poor fit]"
COc1cc2c(cc1OC)CN(CCC(=O)c1ccc(Br)cc1)CC2,–,"inconclusive: 79.4 µM [inhibitor, partial curve, poor fit]"
Cn1cccc1Cc1nnc(SCC(=O)NC2CCCC2)n1CCc1ccccc1,inactive: 312%,–
COc1cccc(-c2cc(C(=O)NCC3CCCO3)c3ccccc3n2)c1 (stereo not given),inactive: -13.7%,–

SMILES,"activity change, negative = inhibition",Potency
CN(C(=O)COC(=O)c1ccc(Cl)s1)C1(C#N)CCCCC1,–,"inconclusive: 158 µM [inhibitor, partial curve, poor fit]"
N#CCc1c(C#N)c(N)nc(N2CCN(S(=O)(=O)c3ccccc3F)CC2)c1C#N,–,"inconclusive: 0.282 µM [inhibitor, full curve, poor fit]"
O=C(CCNS(=O)(=O)c1ccc(Br)cc1)NCc1ccc2c(c1)OCO2,–,"inconclusive: 112 µM [inhibitor, partial curve, poor fit]"
CCc1nnc(NC(=O)CSc2nnc(-c3ccccc3OC)n2-c2ccc(C)cc2)s1,–,"inconclusive: 7.08 µM [inhibitor, partial curve, poor fit]"
CCc1cccc(C)c1NC(=O)CSc1nnc(-c2cc3cc(Br)ccc3o2)n1CC,inactive: 0%,–
COc1cccc(CN2CCC(C(=O)N3CCN(c4ccccc4F)CC3)CC2)c1OC,–,"inconclusive: 3.16 µM [inhibitor, full curve, poor fit]"
Cc1ccc(-n2c(COc3ccccc3)nnc2SCC(=O)O)cc1,–,"inconclusive: 39.8 µM [inhibitor, partial curve, poor fit]"
COc1ccc(C2CC(O)(c3ccccc3)Oc3c(C)ccc(C)c32)cc1 (stereo not given),inactive: -17.3%,–
CC(C)NC(=O)c1onc(-c2ccc(Cl)cc2)c1[C@H](C)O,–,"inconclusive: 14.1 µM [inhibitor, full curve]"
CC(NC(=O)NC12CC3CC(CC(C3)C1)C2)c1ccc2c(c1)OCO2 (stereo not given),inactive: 3.63%,–
Cc1ccc([N+](=O)[O-])cc1NC(=O)c1cccnc1,–,"inconclusive: 44.7 µM [inhibitor, single point]"
CCN(CC)CCNC(=O)c1ccc(NC(=O)Cc2cccc(C(F)(F)F)c2)cc1,–,active: 44.7 µM
O=C(c1cc(=O)c2cc(Cl)ccc2o1)N1CCC1,–,"inconclusive: 79.4 µM [inhibitor, partial curve, poor fit]"
O=C(C1=C(O)C(=O)N(c2ccccc2)C1c1ccc([N+](=O)[O-])cc1)c1cccs1 (stereo not given),–,"inconclusive: 11.2 µM [inhibitor, full curve, poor fit]"
COC(=O)[C@H](CC(C)C)N(Cc1cn(Cc2ccc(C)cc2)nn1)S(=O)(=O)c1ccccc1Br,–,active: 8.91 µM
CC(=O)NC(C)(c1ccccc1)c1nc(-c2ccncc2)cs1 (stereo not given),inactive: -12.4%,–
Cc1cc(NC(=O)c2oc3c(c2C)-c2[nH]ncc2CC3)ccc1Br,–,"inconclusive: 112 µM [inhibitor, single point]"
CN(C)CCOC(=O)C12CCC3CC(CC(C3)C1)C2,–,"inconclusive: 14.1 µM [inhibitor, full curve]"
COCCN1CC(CO)C2(CCN(Cc3cccs3)CC2)C1 (stereo not given),inactive: 56.8%,–
C[C@H]1CNCCN1c1ccc(N2CCS(=O)(=O)CC2)c(C#N)c1,–,"inconclusive: 56.2 µM [inhibitor, partial curve, poor fit]"
Cc1ccc(C)c(-c2cc(C(=O)Nc3nccs3)c3ccccc3n2)c1,inactive: -22.4%,–
Cc1csc2nc(COC(=O)c3ccc(NC(=O)c4ccc(C(C)(C)C)cc4)cc3)cc(=O)n12,inactive: -1.62%,–

SMILES,"activity change, negative = inhibition",Potency
O=C(O)CSCC(=O)N1CCN(c2cc(C(F)(F)F)nc3ccccc23)CC1,inactive: -9.77%,–
CC1(C)Cc2c(ccc3ccccc23)C(CCl)N1 (stereo not given),–,active: 5.62 µM
CC(C)C(CC(=O)NCc1ccco1)c1ccco1 (stereo not given),inactive: 8.99%,–
N#Cc1c(N)n(-c2ccc(C(=O)O)cc2)c2nc3ccccc3nc12,–,"inconclusive: 112 µM [inhibitor, partial curve, poor fit]"
COc1ccc(Nc2ncc(C(=O)Nc3ccc(F)cc3F)c3ccccc23)cc1,–,"inconclusive: 28.2 µM [inhibitor, partial curve, poor fit]"
Cc1ccc2c(C)c(CCC(=O)Nc3ccccc3Br)c(=O)oc2c1,–,"inconclusive: 4.47 µM [inhibitor, full curve, poor fit]"
Cc1nn(-c2ccc(Cl)nn2)c2c1C(c1ccc(C(=O)O)cc1)CC(=O)N2 (stereo not given),–,"inconclusive: 89.1 µM [inhibitor, partial curve, poor fit]"
CCOCCCn1c(SCC(=O)Nc2ccc(F)cc2)nc2c(sc3ccccc32)c1=O,–,"inconclusive: 126 µM [inhibitor, partial curve, poor fit]"
Cc1cc(CNC(=O)c2cccnc2Cl)c2ccccc2n1,–,"inconclusive: 100 µM [inhibitor, single point]"
COc1cc(/C=C2/NC(=O)NC2=O)cc(Cl)c1OCc1ccc(C(=O)O)cc1,–,"inconclusive: 35.5 µM [inhibitor, partial curve, poor fit]"
COc1ccc(CCNS(=O)(=O)c2ccccc2[N+](=O)[O-])cc1OC,–,"inconclusive: 112 µM [inhibitor, single point]"
CC(Oc1cc2oc(=O)c3c(c2cc1Cl)CCC3)C(=O)NCCCN1CCCC1=O (stereo not given),–,"inconclusive: 158 µM [inhibitor, partial curve, poor fit]"
CC1C(=O)N(Cc2cn(Cc3ccco3)nn2)CCS(=O)(=O)N1Cc1ccc(-c2ccccc2)cc1 (stereo not given),–,"inconclusive: 70.8 µM [inhibitor, partial curve, poor fit]"
CC(C)(C)C(=O)NC(Nc1ccccc1)C(Cl)(Cl)Cl (stereo not given),–,"inconclusive: 126 µM [inhibitor, single point]"
COc1ccc(NC(=O)CN(C)C(=O)c2ccc(N3CCCCC3)c([N+](=O)[O-])c2)cc1,–,"inconclusive: 56.2 µM [inhibitor, partial curve, poor fit]"
Nc1ccc2c(c1)CC(=O)c1ccccc1S2,–,"inconclusive: 56.2 µM [inhibitor, partial curve, poor fit]"
COc1cc(C(=O)N2N=C(C)CC2(O)C(F)(F)F)cc(OC)c1OC (stereo not given),inactive: 33.2%,–
CCOc1cc(NC(=S)NCC2CCCO2)c(OCC)cc1NC(=O)c1ccccc1 (stereo not given),–,"inconclusive: 44.7 µM [inhibitor, partial curve, poor fit]"
Cc1ccc(NC(=O)c2ccc(CN3CCc4ccccc4C3)cc2)cc1,inactive: 18.5%,–
O=C(c1ccccc1O)N1CCN(C(=O)c2cc(=O)[nH]c3ccccc23)CC1,inactive: 19.9%,–
COc1ccc(Cl)cc1NC(=O)CSc1cc(C)[nH]c(=O)n1,inactive: -17.6%,–

# Given with bars between the fields: part of the list above.
SMILES | activity change, negative = inhibition | Potency
CC(C)(C)c1csc(NC(=O)c2ccc(Cl)s2)n1 | – | inconclusive: 50.1 µM [inhibitor, partial curve, poor fit]
Cn1ccnc1-c1nc2cc(S(=O)(=O)N3CCCC3)ccc2n1C | inactive: -9.25% | –
Cc1ccc2c(c1)[C@H]1[C@H](CO2)[C@H](c2ccccc2)[C@]2(C)C(=O)NCC(=O)N12 | – | inconclusive: 0.282 µM [inhibitor, full curve, poor fit]
Cc1cc(/C=C(\C#N)c2cccc(C(F)(F)F)c2)c(C)n1C | – | active: 39.8 µM
COc1ccc(NC(=O)CN2CCCN(Cc3ccccc3)S2(=O)=O)cc1 | – | inconclusive: 89.1 µM [inhibitor, partial curve, poor fit]
Fc1ccc(CNc2nc(-c3ccc(Cl)cc3)cc(C(F)(F)F)n2)cc1 | inactive: -24.7% | –
CC(C)NC(=O)c1onc(-c2ccc(Cl)cc2)c1[C@H](C)O | – | inconclusive: 14.1 µM [inhibitor, full curve]
O=C(c1cc(=O)c2cc(Cl)ccc2o1)N1CCC1 | – | inconclusive: 79.4 µM [inhibitor, partial curve, poor fit]
Cc1cc(NC(=O)c2oc3c(c2C)-c2[nH]ncc2CC3)ccc1Br | – | inconclusive: 112 µM [inhibitor, single point]
CN(C)CCOC(=O)C12CCC3CC(CC(C3)C1)C2 | – | inconclusive: 14.1 µM [inhibitor, full curve]
C[C@H]1CNCCN1c1ccc(N2CCS(=O)(=O)CC2)c(C#N)c1 | – | inconclusive: 56.2 µM [inhibitor, partial curve, poor fit]
CC1(C)Cc2c(ccc3ccccc23)C(CCl)N1 (stereo not given) | – | active: 5.62 µM
CC(C)C(CC(=O)NCc1ccco1)c1ccco1 (stereo not given) | inactive: 8.99% | –
Cc1cc(CNC(=O)c2cccnc2Cl)c2ccccc2n1 | – | inconclusive: 100 µM [inhibitor, single point]
COc1cc(/C=C2/NC(=O)NC2=O)cc(Cl)c1OCc1ccc(C(=O)O)cc1 | – | inconclusive: 35.5 µM [inhibitor, partial curve, poor fit]
CC(Oc1cc2oc(=O)c3c(c2cc1Cl)CCC3)C(=O)NCCCN1CCCC1=O (stereo not given) | – | inconclusive: 158 µM [inhibitor, partial curve, poor fit]
Nc1ccc2c(c1)CC(=O)c1ccccc1S2 | – | inconclusive: 56.2 µM [inhibitor, partial curve, poor fit]
Cc1ccc(NC(=O)c2ccc(CN3CCc4ccccc4C3)cc2)cc1 | inactive: 18.5% | –
O=C(c1ccccc1O)N1CCN(C(=O)c2cc(=O)[nH]c3ccccc23)CC1 | inactive: 19.9% | –
